Experimental data published in paper doi:10.1101/697953.

B1: full-length chlamydial MreB (protein, UniProt O84715 1-366)
chain: MSPYRSLYKIKHLSNRLYNKALGRFDRVFNFFSGNVGIDLGTANTLVYVRGRGIVLSEPSVVAVDAQTHAVLAVGHKAKAMLGKTPRKIVAVRPMKDGVIADFEIAEGMLKALIKRVTPARSMFRPKILIAVPSGITGVEKRAVEDSALHAGAQEVILIEEPMAAAIGVDLPVHEPAASMIIDIGGGTTEIAIISLGGIVESRSLRIAGDEFDECIINYMRRTYNLMIGPRTAEEIKITIGSAYPLGDQELEMEVRGRDQVAGLPITKRINSVEIRECLAEPIQQIIECVRLTLEKCPPELSADLVERGMVLAGGGALIKGLDKALSKNTGLSVITAPHPLLAVCLGTGKALEHLDQLKKRKESLV
B2: ΔN22 chlamydial MreB (domain or fragment, UniProt O84715 23-366)
chain: GRFDRVFNFFSGNVGIDLGTANTLVYVRGRGIVLSEPSVVAVDAQTHAVLAVGHKAKAMLGKTPRKIVAVRPMKDGVIADFEIAEGMLKALIKRVTPARSMFRPKILIAVPSGITGVEKRAVEDSALHAGAQEVILIEEPMAAAIGVDLPVHEPAASMIIDIGGGTTEIAIISLGGIVESRSLRIAGDEFDECIINYMRRTYNLMIGPRTAEEIKITIGSAYPLGDQELEMEVRGRDQVAGLPITKRINSVEIRECLAEPIQQIIECVRLTLEKCPPELSADLVERGMVLAGGGALIKGLDKALSKNTGLSVITAPHPLLAVCLGTGKALEHLDQLKKRKESLV

Experiments:
Assay in all cases: two-hybrid
[1] = target: full-length chlamydial FtsK (Chlamydia (printed: chlamydial))
[2] = target: N-terminal region of FtsK lacking its ATPase domain (Chlamydia (printed: chlamydial))
[3] = target: chlamydial RodZ (Chlamydia (printed: chlamydial))

Binder | binding [1] | binding [2] | binding [3]
B1 | binds | binds | binds
B2 | no binding | no binding | no binding

Results are given in words; binding and its absence hold for the method and conditions named. Binding calls can cover weak binding; strength is not graded here.
